From article PMC10163288
Some of the results follow.

B1: il10ra_site1_normal_mot_HHH_b2_00033_000000036_0001_41_54_H_._HHH_b1_07736_0001_0000100005_0000001_0 (protein)
chain: SSSSSDEQQELFQLVWEAAKRRDEELLRELEERIRELYEETGDPALRALLRLIRLFLESLSSSSS
B2: il10ra_site1_normal_mot_HHH_b1_06789_af2_000000041_0001_1_20_H_._HHH_b1_07940_0001_0000100010_0000001_0_af2pred_0001 (protein)
chain: SSSSDVIRFVVEAALKTAKLAAERGDDEAVRRALEIAERTAEDANDPELLREVEEVKEELSSSSS
B3: il10ra_site1_normal_mot_1f0bf248c09923a0581b66a675a8b92c_0001_af2_000000190_0001_52_65_H_._HHH_b2_01395_af2_0001_0000700029_0000001_0_af2pred_0001 (protein)
chain: SSSSDEEEEKVRELIEEAIQLLLEGNPEEARKVLEEAIELAERLGDPELARRVRLLLRSVSSSSS
B4: il10ra_site1_sap_23_mot_ems_3hM_3349_af2_000000150_0001_25_42_H_._8eb524b276bbb897fd8f0cca34c37a2d_0001_af2_0001_0000300019_0000001_1_0001 (protein)
chain: SSSSDEEIREEVEELLERAEEIEDLREANEVLLRALRLAIQAQDPELLQLVWRVVHEVARSSSSS
B5: il10ra_site1_normal_mot_HHH_b2_05813_000000266_0001_1_19_H_._HHH_b1_01854_0001_0000400040_0000002_0_af2pred_0001 (protein)
chain: SSSSSEEERELLRLAVRIKRLLEEGDKEEVEKLAEELLELAKELGDPHAEFLARLILEELSSSSS
B6: il10ra_site1_normal_mot_HHH_b1_05326_000000242_0001_1_20_H_._HHH_b1_05311_0001_0000100004_0000001_0 (protein)
chain: SSSSSSDEALELSRRAFKAALHGNPEEARELLEEALELAEERGDERLARIIQDLLKVLSSSSSSS
B7: il10ra_site1_sap_23_mot_HHH_b2_06602_000000226_0001_1_16_H_._HHH_b1_06962_0001_0000200019_0000002_0_0001_af2pred_0001 (protein)
chain: SSSSSIHEKIIRLLFEALELYANGNPEEAERLIEEAEELAEELGDPELQEAIKQVRRFVESSSSS
B8: il10ra_site1_sap_35_mot_HHH_b1_01513_af2_000000021_0001_1_16_H_._HHH_b2_03408_af2_0001_0000300008_0000001_0_0001 (protein)
chain: SSSSSDEEYEEEVERLLEEAEKIEDPREVAELLLKAVHLAWRAQDPELLRLVWRVVKELASSSSS
B9: il10ra_site1_sap_23_mot_HHH_b2_06857_af2_000000179_0001_42_54_H_._HHH_b1_05051_af2_0001_0000600017_0000002_0_0001 (protein)
chain: SSSSNEDNEEVMELLREVTELDQEGNPEEARKVLEEAKELAEEIGNEVLRWAIEYLEKLLSSSSS
B10: il10ra_site1_sap_21_mot_HHH_b1_07256_000000044_0001_1_17_H_._HHH_b1_03517_0001_0000300021_0000001_0_0001_af2pred_0001 (protein)
chain: SSSSDELERIFRLIRRVAELHHDGNPEEAQELLEEAKELAEEAGNEVFKFIVEFLERLLESSSSS
B11: il10ra_site1_sap_19_mot_HHH_b2_05984_000000071_0001_38_52_H_._919c246ba0fc10ef4578bdc7f1052ff8_0001_0001_0000100004_0000001_0_0001 (protein)
chain: NELEEELEELVERGDEEKVAELAVKVAKEKGSFSPEQLEALRRFIEALFRDNKKVAEHLARLVID
B12: il10ra_site1_sap_26_mot_HHH_b1_05329_000000008_0001_43_56_H_._HHH_b1_07099_af2_0001_0000500019_0000001_0_0001 (protein)
chain: SSSSDNREVYELSREVMELLRNGDPEEAEKLVEEALELAREIGNWALIKALEHVLKDIEDSSSSS
B13: il10ra_site1_normal_mot_8756ee2cf497b5429c717dfc0c0bcfd6_0001_000000186_0001_1_13_H_._HHH_b1_01841_0001_0000600019_0000002_0_af2pred_0001 (protein)
chain: SSSSSEEVERLVEIAKKLAEASDRKNDERLREELQELLEEVEEAGNAVLLVIVEFLLKHTSSSSS
B14: il10ra_site1_sap_31_mot_HHH_b1_02809_af2_000000277_0001_40_57_H_._HHH_b1_05617_af2_0001_0000300017_0000002_0_0001 (protein)
chain: SSSSDEELLELTRLIFRLMLRGDIEEARRVLEEAEELAEELGNERVLKMLKDLRESLEKRSSSSS
B15: il10ra_site1_normal_mot_HHH_b1_02997_000000220_0001_39_52_H_._HHH_b1_07797_0001_0000200027_0000001_0_af2pred_0001 (protein)
chain: SSSSSEEHRELLRLSRRALELYREGDREEARELLEEAIELAQEAGNPVFLVVLEFLLEQINSSSS
B16: il10ra_site1_normal_mot_HHH_b2_00076_000000055_0001_40_55_H_._HHH_b2_07214_af2_0001_0000700018_0000001_0 (protein)
chain: SSSSNDVSRLTAEIVRLAIRANDPEVLQEAYELFKKYIEEGDERYEEELEELLEELRKKLESSSS
B17: il10ra_site1_normal_mot_HHH_b2_00943_af2_000000149_0001_1_17_H_._HHH_b2_05085_0001_0000400026_0000001_0_af2pred_0001 (protein)
chain: SSSSSAEELIRLALEAVKLLGDEEAAKEIEELLEEAEKKGDSRLAHQVAQIAYEVVKESKSSSSS
B18: il10ra_site1_sap_21_mot_104c758fc23488854646035ccb2100c6_0001_000000282_0001_15_29_H_._203a44625a3a2ba431098544127a80a6_0001_0001_0000100001_0000002_0_0001 (protein)
chain: SSSEEEVEELVKEVERVAEERGDPEARRVAEFLEAMARQAREQNNEEALRSISWALRAFREVFSS
B19: il10ra_site1_normal_mot_HHH_b1_06914_000000280_0001_1_18_H_._HHH_b1_05137_0001_0000100004_0000001_0 (protein)
chain: SSSSDEETEEIYELLRRAAELLAEGNPEEAKEVLEEARELAEEINSEMFRFAVRLLLRDLSSSSS
B20: il10ra_site1_normal_mot_HHH_b1_02708_af2_000000019_0001_23_39_H_._e0a7e7c149437fae01dc270677924e9f_0001_1_0001_0000100001_0000001_0 (protein)
chain: SLEEEVTELVRELGLPPMVESAVRSFVLAKELGDEEYLKIAEHFLEAQARRDPNVEEVLRFLRER
B21: il10ra_site1_normal_mot_HHH_b2_01447_af2_000000258_0001_1_20_H_._HHH_b1_04789_af2_0001_0000200017_0000001_0 (protein)
chain: SSSSDELQEVMELIRRLSEAIQEGDEELVEKLAEEAERLARELNNPILEFSVRHAVRLFENSSSS
B22: il10ra_site1_normal_mot_HHH_b2_02337_000000026_0001_38_52_H_._HHH_b1_00071_0001_0000200031_0000001_0 (protein)
chain: SSSSSEEVEELIELVEELLRQGNYEEALRVVWRAVHLAVELDDPELIQELFELTHRLARGSSSSS
B23: il10ra_site1_normal_mot_HHH_b1_03262_af2_000000181_0001_43_57_H_._HHH_b2_06532_0001_0000200016_0000001_0_af2pred_0001 (protein)
chain: SSSSSHEEALRRLLKAIRLALRQGDEEEAKLALRFVKFLAEEANDDEVLREVEKLEELLESSSSS
B24: il10ra_site1_sap_22_mot_HHH_b2_07873_af2_000000172_0001_1_19_H_._HHH_b2_07566_af2_0001_0000300011_0000001_0_0001 (protein)
chain: SSSSDASEEVARLLRRVVELDNEGDEEEARELLEEARRLAEEANNDVVLVQVEYLERLLNSSSSS

biological target: il10ra, Q13651; assay: yeast display titration

Apparent Kd, inactive:
B1 no binding seen
B2 no binding seen
B3 no binding seen
B4 no binding seen
B5 no binding seen
B6 no binding seen
B7 no binding seen
B8 no binding seen
B9 no binding seen
B10 > 2020 nM
B11 no binding seen
B12 no binding seen
B13 no binding seen
B14 no binding seen
B15 no binding seen
B16 no binding seen
B17 no binding seen
B18 no binding seen
B19 no binding seen
B20 no binding seen
B21 no binding seen
B22 no binding seen
B23 no binding seen
B24 no binding seen

Reprinted at random: 2 entries already listed
Apparent Kd, inactive:
B12 no binding seen
B17 no binding seen
